# Data: paper PMC7862700
# The entries are a selection whose mix differs from that of the whole data set. For part of these data: At the low end of the ranking the order means little. This is one part of the list. For part of these data: The exact form of the protein is not confirmed.
# Columns and labels:
# Experiment in all cases: DAPPL (digital affinity profiling via proximity ligation, sequencing)
# Details in all cases: 10 mM Tris-HCl pH 7.5, 50 mM NaCl, 1 mM DTT, 4% glycerol, room temperature, 30 min; GST-TFs on glutathione beads, 16-mer random dsDNA library, 0.1% …; high values mean tight binding; double strand, one strand shown; scale: fold enrichment (6-mer frequency, TF over GST control)
# GABPA = molecular target: T1, GABPA (UniProt Q06546)
# T1 sequence: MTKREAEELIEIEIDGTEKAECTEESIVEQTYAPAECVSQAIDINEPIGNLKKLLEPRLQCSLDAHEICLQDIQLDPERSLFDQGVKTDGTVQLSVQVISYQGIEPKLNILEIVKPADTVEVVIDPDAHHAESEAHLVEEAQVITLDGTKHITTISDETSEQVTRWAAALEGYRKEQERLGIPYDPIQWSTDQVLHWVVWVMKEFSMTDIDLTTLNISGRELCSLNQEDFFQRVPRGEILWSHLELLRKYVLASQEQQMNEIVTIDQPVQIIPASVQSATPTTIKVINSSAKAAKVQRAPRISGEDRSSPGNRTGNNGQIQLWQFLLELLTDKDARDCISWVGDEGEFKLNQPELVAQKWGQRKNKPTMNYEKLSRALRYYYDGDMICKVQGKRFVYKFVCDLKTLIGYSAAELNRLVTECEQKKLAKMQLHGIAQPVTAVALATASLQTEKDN
# ETS1 = molecular target: T2, ETS1 (UniProt P14921)
# T2 sequence: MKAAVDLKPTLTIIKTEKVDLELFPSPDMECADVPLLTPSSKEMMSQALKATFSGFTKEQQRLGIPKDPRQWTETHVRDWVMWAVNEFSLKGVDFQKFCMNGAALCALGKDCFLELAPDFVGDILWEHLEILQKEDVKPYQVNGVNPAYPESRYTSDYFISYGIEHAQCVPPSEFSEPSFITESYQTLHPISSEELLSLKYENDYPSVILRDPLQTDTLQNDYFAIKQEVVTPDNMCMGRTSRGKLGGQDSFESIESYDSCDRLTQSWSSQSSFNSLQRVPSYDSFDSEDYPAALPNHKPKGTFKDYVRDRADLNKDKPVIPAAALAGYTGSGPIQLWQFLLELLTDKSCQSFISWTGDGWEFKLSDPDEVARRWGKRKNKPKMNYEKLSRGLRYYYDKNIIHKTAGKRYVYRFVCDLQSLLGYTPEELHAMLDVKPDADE
# SPDEF = molecular target: T3, SPDEF (UniProt O95238)
# T3 sequence: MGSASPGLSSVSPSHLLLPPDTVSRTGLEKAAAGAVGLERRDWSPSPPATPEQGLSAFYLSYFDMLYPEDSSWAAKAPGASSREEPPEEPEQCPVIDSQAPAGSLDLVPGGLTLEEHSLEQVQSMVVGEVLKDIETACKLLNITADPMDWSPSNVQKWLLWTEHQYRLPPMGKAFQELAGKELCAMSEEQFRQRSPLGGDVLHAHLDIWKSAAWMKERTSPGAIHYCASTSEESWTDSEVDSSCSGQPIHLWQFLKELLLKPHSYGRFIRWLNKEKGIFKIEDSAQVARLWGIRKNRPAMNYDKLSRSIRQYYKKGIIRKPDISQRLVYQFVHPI
Sequence,binding signal (GABPA),binding signal (ETS1),binding signal (SPDEF)
GGATCG,0.587,0.606,0.622
TGCCAG,0.727,0.657,0.675
GCATGC,0.854,0.82,0.818
GCAAGA,0.842,0.815,0.877
ACCGAG,0.77,0.777,0.758
ACAGGG,0.766,0.828,0.825
GAGGAT,0.582,0.618,0.664
GGGCAC,0.794,0.756,0.818
GCGGAC,0.619,0.656,0.741
CAGGCC,0.73,0.741,0.676
GTAGGT,0.792,0.804,0.778
TTGAGT,0.645,0.645,0.678
GATAGG,0.812,0.802,0.799
CAAGTG,0.798,0.735,0.714
GGCAGA,0.668,0.632,0.583
GACATA,0.873,0.885,0.936
CGCCAG,0.662,0.646,0.691
GGGTAG,0.773,0.649,0.663
GTAGGC,0.648,0.688,0.682
GAGTTG,0.495,0.535,0.456
GGGCGG,0.423,0.4,0.449
GCGTGG,0.544,0.545,0.541
CAAGCG,0.87,0.903,0.815
TGTGAG,0.363,0.314,0.322

Sequence,binding signal (GABPA),binding signal (ETS1),binding signal (SPDEF)
GTAGCC,0.909,0.966,0.962
TCGTGC,0.831,0.769,0.773
AAGACG,0.717,0.784,0.725
CGCGTG,0.602,0.659,0.629
CGCGGG,0.774,0.771,0.744
GGCCGC,0.854,0.782,0.784
TCGGTC,0.543,0.558,0.566
GGAGCT,0.596,0.607,0.594
AGCGTG,0.373,0.365,0.331
GTCTGA,0.728,0.78,0.768
CCATGT,0.845,0.873,0.789
CACAGT,0.786,0.719,0.701
GAGGGG,0.518,0.486,0.476
CGTGCA,0.738,0.724,0.677
ATGTCG,0.642,0.616,0.695
GGGCGC,0.619,0.54,0.587
GGTTAG,0.77,0.738,0.857
GGTGCC,0.769,0.787,0.756
CCCGAG,0.896,0.783,0.766
AGAGGC,0.765,0.67,0.632
GACGAG,0.555,0.554,0.566
ACCATG,0.858,0.907,0.876
GATTGT,0.826,0.866,0.835
CCGGGA,0.457,0.451,0.728

Sequence,binding signal (GABPA),binding signal (ETS1),binding signal (SPDEF)
GAACGT,0.384,0.408,0.408
GAAGAC,0.853,0.832,0.757
TGTCGG,0.326,0.352,0.41
GTTGAG,0.614,0.567,0.695
GTCAAT,0.846,0.858,0.824
TCCAGG,0.879,0.888,0.823
AACGAG,0.869,0.805,0.758
GGGTTA,0.819,0.855,0.891
CCAGAG,0.671,0.69,0.616
GGAGGT,0.346,0.312,0.355
CCGTGC,0.629,0.576,0.502
ATCGGC,0.649,0.606,0.58
AGTAGT,0.97,0.933,0.882
AGACCA,0.62,0.625,0.667
GAGTGA,0.413,0.419,0.387
GTGGTG,0.911,0.863,0.888
TCGGCC,0.724,0.749,0.69
GCCGCG,0.749,0.783,0.727
GCAAGT,0.878,0.785,0.711
CGGCGC,0.69,0.602,0.627
GGGGAC,0.489,0.434,0.439
CCATCG,0.849,0.842,0.772
GTCAGG,0.503,0.506,0.501
GTGTCG,0.564,0.643,0.629

Sequence,binding signal (GABPA),binding signal (ETS1),binding signal (SPDEF)
ACGAGG,0.766,0.76,0.754
GTCGAA,0.666,0.614,0.634
GGGGGC,0.642,0.599,0.583
GGGTGA,0.644,0.676,0.635
GACGCC,0.858,0.815,0.868
GGTGAA,0.836,0.81,0.735
TGTGAA,0.918,0.895,0.9
CAGTCT,0.738,0.719,0.711
GAGTGG,0.57,0.639,0.596
GACAGC,0.813,0.723,0.781
ATCGTG,0.418,0.427,0.381
AGGTGA,0.563,0.54,0.54
GAGCAG,0.669,0.62,0.612
TGACAG,0.968,0.939,0.999
CGTAGT,0.785,0.879,0.834
CGGGTA,0.796,0.91,0.949
CGGCCG,0.86,0.804,0.91
GAGGAG,0.231,0.24,0.192
GTAGGG,0.697,0.729,0.699
TACCGT,0.654,0.637,0.715
GACGTG,0.323,0.313,0.324
TGAAGT,0.77,0.728,0.794
CAGTTT,0.904,0.9,0.836
AGTGGG,0.581,0.583,0.586

Sequence,binding signal (GABPA),binding signal (ETS1),binding signal (SPDEF)
AACGGG,0.667,0.681,0.66
GAGACG,0.321,0.319,0.338
TGGAGA,0.436,0.414,0.392
AGCCGG,0.559,0.541,0.667
AGCGAG,0.655,0.628,0.656
CGAGAC,0.559,0.584,0.56
ACTGTG,0.493,0.501,0.504
GCAGGA,0.76,0.798,0.873
CGTGAG,0.113,0.133,0.13
AGCGGA,0.81,0.793,0.81
GTCGGT,0.268,0.261,0.279
GTCCAG,0.638,0.603,0.637
TGCAGG,0.965,0.95,0.915
GGAGTT,0.396,0.459,0.461
GGCACA,0.823,0.811,0.839
GACAAC,0.943,0.986,0.965
GTGACG,0.68,0.687,0.684
CAGGCG,0.273,0.3,0.248
GCCAAA,0.873,0.972,0.863
GAGTAC,0.558,0.588,0.531
ACTGAG,0.785,0.739,0.776
TGAGAC,0.545,0.551,0.525
AGCCGT,0.468,0.525,0.425
GCAGTA,0.884,0.957,0.839

# Quoted from the listing:
# Entry of AGCGGA under binding signal (ETS1): 0.793
# Entry of GAGACG under binding signal (SPDEF): 0.338
# Entry of AGCGAG under binding signal (GABPA): 0.655
# Entry of GCAGTA under binding signal (SPDEF): 0.839
